The source of these data is PubChem BioAssay AID330 (DTP/NCI, 2004).

The list is a part of this screen's results and no random one: it gathers tests that were run many times, whatever their T/C, doses with no T/C, and many T/C values between a quarter and a half above the control. Other doses and runs of a compound stand elsewhere. T/C gives the treated animals as a percentage of the vehicle group. Some doses have a count of surviving animals in place of a T/C: the source holds a T/C of zero for them, seemingly a mark for toxic or unscored doses. Some survivor counts are full or nearly so, which does not show that the dose was tolerated: survival well below the control is almost never listed, so the zero probably covers shortened survival too. Counts of survivors are from the toxicity check (mostly the fifth day) where no day follows; animals may have died later. Schedules are NCI's codes, read here as Q, the interval in days (D) or hours (H), X, the number of doses. For survival time, this PubChem deposit counts one and a half times the control or more as active, and values a quarter to a half above the control carry no call in these data; other NCI protocols may use other cut-offs. Signs of the kind (2×) say how often a value occurs here. Some entries hold several experiments; the results are listed from low to high. Some T/C values carry the count of animals alive at the toxicity check (mostly the fifth day); without a count, all were alive then.

The test system of this assay is P388 leukemia ip, CD2F1 mice, survival T/C. In words: NCI In Vivo Anticancer Drug Screen. Data for tumor model P388 Leukemia (intraperitoneal) in CD2F1 (CDF1) mice. The settings on record: T/C endpoint: median survival time, higher T/C = longer survival.
[1] abbreviates: dose: 50.0 mg/kg/injection, schedule: Q01DX005 (ip), vehicle: Klucel (hydroxypropylcellulose) (HPC).
Setting [2] is: dose: 100.0 mg/kg/injection, schedule: Q01DX005 (ip), vehicle: Klucel (hydroxypropylcellulose) (HPC).
Setting [3] is: dose: 200.0 mg/kg/injection, schedule: Q01DX005 (ip), vehicle: Klucel (hydroxypropylcellulose) (HPC).
Setting [4] is: dose: 200.0 mg/kg/injection, schedule: Q01DX005 (ip), vehicle: saline with Tween-80.
[5] abbreviates: dose: 100.0 mg/kg/injection, schedule: Q01DX009 (ip), vehicle: saline.
[6] abbreviates: dose: 60.0 mg/kg/injection, schedule: Q01DX005 (ip), vehicle: saline with Tween-80.
Where [7] appears, read: dose: 120.0 mg/kg/injection, schedule: Q01DX005 (ip), vehicle: saline with Tween-80.
The mark [8] stands for this setting: dose: 50.0 mg/kg/injection, schedule: Q01DX009 (ip), vehicle: saline.
The mark [9] stands for this setting: dose: 200.0 mg/kg/injection, schedule: Q01DX005 (ip), vehicle: saline.

For `Cc1cc(C(=O)Nc2ccc(NC3=NCCN3)cc2)c(C)cc1C(=O)Nc1ccc(NC2=NCCN2)cc1`, the T/C under setting [1] is 128 [5 of 6 alive] and 137 % of control. For the same compound, the survivor count by setting is: under setting [2], 0 of 6; under setting [3], 0 of 6. Regarding `CC(C)[Si]1(C(C)C)N[Si](C(C)C)(C(C)C)N1`, the survivor count (dose: 60.0 mg/kg/injection, schedule: Q01DX005 (ip), vehicle: saline) is on record as 5 of 6. In the case of `CCCCCCCCCCCCCCCC[N+]1(CCCCCCCCCCCC)CCSCC1` (tested in a mixture with another compound), the T/C (dose: 20.0 mg/kg/injection, schedule: Q01DX009 (ip), vehicle: saline with Tween-80) was 139 % of control. For the compound `CCN1C(=O)C(=NO)C(=O)N(CC)C1=S.CCN1C(=O)C(=N[O-])C(=O)N(CC)C1=S.CCN1C(=O)C(=N[O-])C(=O)N(CC)C1=S.[Fe+3]`, the survivor count (dose: 400.0 mg/kg/injection, schedule: Q04DX002 (ip), vehicle: saline with Tween-80) was 3 of 6.

In the case of `C/C(=N\NC(=S)N1CCC(C2CCN(C(=S)N/N=C(\C)c3ccccn3)CC2)CC1)c1ccccn1`, the T/C under setting [4] was 126 % of control. For the compound `Cc1cc2nc(N(C)C)cc(N(C)C)c2cc1C`, the survivor count is given as 2 of 6 (dose: 100.0 mg/kg/injection, schedule: Q01DX009 (ip), vehicle: Klucel (hydroxypropylcellulose) (HPC)) and 0 of 6 (dose: 200.0 mg/kg/injection, schedule: Q01DX009 (ip), vehicle: Klucel (hydroxypropylcellulose) (HPC)).

Turning to `O=C(O)c1cc(Br)ccc1OCc1cccc(Cl)c1`, the survivor count (dose: 100.0 mg/kg/injection, schedule: Q04DX003 (ip), vehicle: saline with Tween-80) is reported as 5 of 6. For the compound `COc1cc(OC)c2c(c1)OC(=O)C(C(C)=O)C2` (stereo not drawn), under setting [4], the survivor count was 0 of 6.

On to `O=C1C(n2ccc(=O)[nH]c2=O)CCN1CCCl` (stereo not drawn), for which the survivor count under setting [1] is 6 of 6. As for `COC1=Nc2ccccc2N2CCN=C12`, the survivor count under setting [5] is reported as 5 of 6. On to `CCN(CC)CCOC(=O)C(OCCC(C)C)(c1ccccc1)c1ccccc1`, for which the survivor count under setting [3] is recorded as 1 of 6. For `CCOc1c(-c2ccccc2)c(=O)n2c3ccccc3n(CC)c2c1C#N`, the survivor count is 6 of 6 under setting [6] and 6 of 6 under setting [7]. On to `COC(=O)c1c(C(=O)OC)c(Nc2ccccc2)c2ccccc2c1O`, for which the survivor count was 1 of 6 under setting [1], 0 of 6 under setting [2] and 0 of 6 under setting [3]. For the compound `ClCCN(CCCl)c1ccc(CN2CCCCCC2)cc1`, the survivor count runs as follows: under setting [8], 5 of 6; under setting [5], 1 of 6; (dose: 200.0 mg/kg/injection, schedule: Q01DX009 (ip), vehicle: saline) 0 of 6.

For the compound `CCOC(=O)C([NH-])C([NH-])C(=O)OCC.[Cl][Pt+2][Cl]` (stereo not drawn), where the note is “dose: 6.25 mg/kg/injection, schedule: Q04DX002 (ip), vehicle: saline with Tween-80”, the T/C is 131 % of control.

Take `NNC(=O)c1ccc(N)cc1`: the survivor count (dose: 200.0 mg/kg/injection, schedule: Q04DX003 (ip), vehicle: saline with Tween-80) is 4 of 6. As for `O=C1C(=O)N(c2ccccc2)C(=O)N1CCN1C(=O)C(=O)N(c2ccccc2)C1=O`, the survivor count runs as follows: (dose: 15.0 mg/kg/injection, schedule: Q01DX005 (ip), vehicle: saline with Tween-80) 6 of 6; (dose: 30.0 mg/kg/injection, schedule: Q01DX005 (ip), vehicle: saline with Tween-80) 6 of 6; under setting [6], 6 of 6. Regarding `CCCC/C(=N\NC(N)=NC)c1ccccc1`, the survivor count (dose: 100.0 mg/kg/injection, schedule: Q04DX002 (ip), vehicle: saline with Tween-80) was 2 of 6. `Cc1cnc2cc(Cl)ccc2c1NCCNCCO`: the survivor count under setting [9] was 0 of 5. With `C=C(Cl)C(O)CNCCCC` (stereo not drawn), under setting [4], the survivor count is 3 of 5. Regarding `CC(=O)NCCCC(=O)O`, the survivor count by setting is: under setting [8], 5 of 6; under setting [5], 2 of 6.

With `CCOc1c(Cc2ccccc2)c(=O)nc2c(-c3ccccc3)cncn12`, under setting [7], the survivor count is recorded as 6 of 6. Regarding `CC1=NN(C(=O)c2ccncc2)C(=O)C1N=Nc1ccc2ccccc2c1` (stereo not drawn), the survivor count (dose: 200.0 mg/kg/injection, schedule: Q01DX009 (ip), vehicle: saline with Tween-80) is 6 of 6. Turning to `Cc1nnc2c([Se])nccn12`, the survivor count (dose: 400.0 mg/kg/injection, schedule: Q01DX001 (ip), vehicle: saline with Tween-80) is recorded as 2 of 6.

On to `CN1C2C=CC1c1c(C3=NC(C)(C)CO3)cccc12` (stereo not drawn), for which, under setting [9], the survivor count is reported as 3 of 6.

`CN(C)c1nc(=O)c2cc(Br)ccc2o1`: the survivor count (dose: 240.0 mg/kg/injection, schedule: Q01DX005 (ip), vehicle: Klucel (hydroxypropylcellulose) (HPC)) is 0 of 6. Regarding `CCOc1c(N=Nc2ccccc2Cl)c(-c2ccccc2)nn1C(=S)S`, the survivor count under setting [4] is reported as 0 of 6.

`[Br][Sn]([CH2]CC[CH2][Sn]([Br])([c]1ccccc1)[c]1ccccc1)([c]1ccccc1)[c]1ccccc1`: under setting [3], the survivor count is recorded as 4 of 6. Still for that read-out and setting: in the case of `O/N=C(/CC(c1ccccc1)N1CCOCC1)c1ccccc1` (stereo not drawn) it was 6 of 6. In the case of `CCCCCC[Se][Se]CCCCCC`, the survivor count under setting [1] was 2 of 6. With `N=c1nc(-c2ccccc2)c(-c2ccccc2)nn1CC(=O)c1ccc(Br)cc1`, the survivor count under setting [3] was 5 of 6. Same read-out and setting: in the case of `c1ccc(CCn2c(-c3ccccn3)nc3ccccc32)nc1` it was 4 of 6. For `N=C(N)N=Nc1cc(O)c(NN=C(N)N)cc1O`, the survivor count (dose: 12.5 mg/kg/injection, schedule: Q01DX005 (ip), vehicle: saline with Tween-80) is recorded as 3 of 6; the survivor count (dose: 25.0 mg/kg/injection, schedule: Q01DX005 (ip), vehicle: saline with Tween-80) is 0 of 6; the survivor count (dose: 50.0 mg/kg/injection, schedule: Q01DX005 (ip), vehicle: saline with Tween-80) is reported as 0 of 6; the survivor count (dose: 100.0 mg/kg/injection, schedule: Q01DX005 (ip), vehicle: saline with Tween-80) was 0 of 6; the survivor count under setting [4] is 0 of 6.

Consider `COc1cccc2c1C(=O)c1c(O)c3c(c(O)c1C2=O)C[C@@](O)(C(=O)CSC(=O)c1ccccc1)C[C@@H]3OC1CC(N)C(O)C(C)O1` (stereo partly drawn), for which the T/C is 128 and 131 % of control (dose: 1.56 mg/kg/injection, schedule: Q01DX009 (ip), vehicle: water); 138 and 144 % of control (dose: 3.13 mg/kg/injection, schedule: Q01DX009 (ip), vehicle: water); 126 % of control (dose: 6.25 mg/kg/injection, schedule: Q01DX001 (ip), vehicle: water); 131 and 137 % of control (dose: 6.25 mg/kg/injection, schedule: Q01DX009 (ip), vehicle: water); 126 % of control (dose: 12.5 mg/kg/injection, schedule: Q01DX001 (ip), vehicle: water); 137 % of control (2×) (dose: 12.5 mg/kg/injection, schedule: Q01DX009 (ip), vehicle: water). In addition, the survivor count is given as 5 of 6 (dose: 25.0 mg/kg/injection, schedule: Q01DX009 (ip), vehicle: water); 0 of 6 (dose: 100.0 mg/kg/injection, schedule: Q01DX001 (ip), vehicle: water); 0 of 6 (dose: 200.0 mg/kg/injection, schedule: Q01DX001 (ip), vehicle: water). Consider `O=C(OCC1OC(n2cc(C(F)(F)F)c(=O)[nH]c2=O)CC1O)c1ccc([N+](=O)[O-])cc1` (stereo not drawn), for which the T/C under setting [1] is 142 % of control. In addition, the survivor count runs as follows: under setting [2], 6 of 6; under setting [3], 6 of 6.

`CCCCCCCCCCCCCCCC(=O)N(CCCCN(C(=O)CCCCCCCCCCCCCCC)C(C)CCCN(CC)CC)C(C)CCCN(CC)CC` (stereo not drawn): the survivor count is reported as 0 of 6 (dose: 100.0 mg/kg/injection, schedule: Q01DX009 (ip), vehicle: other); 0 of 6 (dose: 200.0 mg/kg/injection, schedule: Q01DX009 (ip), vehicle: other); 0 of 6 (dose: 400.0 mg/kg/injection, schedule: Q01DX009 (ip), vehicle: other).
